Two substances from patent US20150099271A1 can be followed below.

Chains of the proteins cited; added tags and fusions are not shown. Lines headed by an entry give the natural chain unless they say otherwise; changes in a name come on top.
UniProt P45532: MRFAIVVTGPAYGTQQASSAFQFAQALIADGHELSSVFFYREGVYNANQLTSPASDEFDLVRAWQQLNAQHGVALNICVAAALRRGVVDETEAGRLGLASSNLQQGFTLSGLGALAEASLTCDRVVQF
UniProt P0AAV4: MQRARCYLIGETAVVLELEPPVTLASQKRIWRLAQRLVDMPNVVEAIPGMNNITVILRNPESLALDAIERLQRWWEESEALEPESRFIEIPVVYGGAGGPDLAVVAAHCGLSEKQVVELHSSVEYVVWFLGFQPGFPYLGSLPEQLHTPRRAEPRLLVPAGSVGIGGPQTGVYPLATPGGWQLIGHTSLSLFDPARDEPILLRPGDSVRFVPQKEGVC

No constants are given. Whether binding was seen depends on the method and setting. Some binding calls cover weakened binding; strength is not graded here. Tags and fused reporters may be left off the sequences shown.

Assay [1] has as its target T1, YheL-GFP11 (last subunit of the YheNML and YheML polycistrons) (E. coli) (UniProt P45530).
T1 sequence: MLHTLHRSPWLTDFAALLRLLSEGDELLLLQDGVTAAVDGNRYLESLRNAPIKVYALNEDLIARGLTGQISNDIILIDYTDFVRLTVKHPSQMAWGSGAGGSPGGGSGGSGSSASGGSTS
Nature of the assay: tripartite split-GFP in E. coli colonies; GFP10 on YheN, GFP11 on YheL, untagged YheM co-expressed.

In assay [2] the target is T2, YBGK-GFP11 (E. coli) (UniProt P75745).
T2 sequence: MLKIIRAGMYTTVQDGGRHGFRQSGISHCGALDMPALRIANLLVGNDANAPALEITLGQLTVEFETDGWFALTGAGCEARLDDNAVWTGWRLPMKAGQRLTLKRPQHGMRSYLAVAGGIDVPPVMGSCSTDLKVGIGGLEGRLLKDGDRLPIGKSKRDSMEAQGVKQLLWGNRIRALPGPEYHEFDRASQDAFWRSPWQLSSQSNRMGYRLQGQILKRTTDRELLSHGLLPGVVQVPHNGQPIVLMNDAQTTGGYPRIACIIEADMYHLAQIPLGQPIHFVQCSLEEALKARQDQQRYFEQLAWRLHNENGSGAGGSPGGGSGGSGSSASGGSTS
Nature of the assay: tripartite split-GFP in E. coli colonies.

As to “GFP10-YheN (first subunit of the YheNML polycistron) (from UniProt P45532 1-128)”, the binding result in assay [1] is “binds”.

For the substance GFP10-YBGJ (from UniProt P0AAV4 1-218), the binding entry in assay [2] was “binds”.
